## Library screen at single concentrations

T. brucei: 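Whole-parasite assay of Trypanosoma brucei over 72 hours; the read-out is not stated. Concentration: 30 µM. Direction is inferred from retests: higher values go with stronger inhibition. Values scatter widely below zero; nearly all retest evidence comes from the higher of the two concentrations used. About 64,000 compounds were tested under these conditions; 1.5% (about 940) showed 50% or more at least once.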
Toxoplasma: 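Assay of Toxoplasma gondii numbers, read through their beta-galactosidase reporter with a colour substrate. Concentration: 10 µM. Higher reads as fewer parasites (inferred from which compounds were picked for retests). About 67,000 compounds were tested under these conditions; 0.38% (about 260) showed 50% or more at least once.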

Values are the deposited “Percent Effect”, in %.
The controls that fix the scale are not given in the record; negative values are as filed.
The compounds are a random part of those screened.
A dash means the value is not listed here; it may have been measured.

SMILES,T. brucei,Toxoplasma
Cc1nc(N2CCC3(CCCNC3=O)C2)nc2c1CCCC2 (centres undefined),-6.788%,-3.759%
CC(NCc1ccc(OCC(N)=O)cc1)c1ccc(Cl)cc1.Cl (centres undefined),-11.6%,-4.299%
Cn1cccc1C(=O)N1CCc2ncc(Cn3cccn3)n2CC1,59.24%,-2.03%
Cc1cc(C)c(C(=O)NC2CCCc3nc(N(C)C)ncc32)cc1C (centres undefined),-38.15%,19.3%
COc1cc(-c2cnnc(NCCSC)n2)cc(OC)c1OC,-27.81%,-0.1655%
Cc1cccc(NC(=O)c2ccc(OCc3nnnn3C)cc2)n1,-59.45%,7.189%
CCc1cc(N2CCC(n3cc(C(=O)NC4CC4)nn3)CC2)ncn1,-14.65%,-5.42%
c1cc(CN2CCC(c3ccnc4nccn34)C2)ccn1 (centres undefined),1.317%,11.15%
[H][C@@]12CCN(C(=O)c3cnoc3C)C[C@@]1([H])O[C@@H](c1ccncn1)C2,-1.479%,-3.864%
COc1cc(NC(=O)NCCO)ccc1N1CCOC1=O,-4.199%,4.083%
CCN(Cc1noc(C)n1)C(=O)C(c1cccc(C)c1)N(C)C (centres undefined),-10.19%,-4.715%
Cc1ncsc1CCC(=O)NCc1csc(N2CCCC2)n1,-10.6%,-2.875%
CC(C)CN1C(=O)C2(CCN(Cc3ccc(F)cc3)C2)c2ccccc21 (centres undefined),100.2%,-0.4297%
O=S(=O)(NCC1COCCO1)c1ccc(C2CCCCC2)cc1 (centres undefined),-47%,-0.1297%
Cc1cc(C)c2c(N3CCN(Cc4ncccc4C)CC3)ncnc2n1,-4.249%,-11.94%
Cc1csc(CCNC(=O)c2cc3c(nc2O)CCC(C)C3)n1 (centres undefined),-25.74%,-4.082%
CCc1ccc(O)c(C(=O)NC2CCN(S(=O)(=O)CC)CC2)c1,-15.82%,-1.278%
CC(C)N1CCC2(CC1)C(=O)N(CCN(C)C)c1ccccc12.O=C(O)C(F)(F)F.O=C(O)C(F)(F)F,5.685%,-2.82%
O=C(Cc1csc(-c2ccoc2)n1)NCCC(=O)N1CCCCC1,-35.23%,-1.498%
CCCn1nc2c(cc1=O)CN(CCCS(N)(=O)=O)CC2,-38.37%,-1.091%
[H][C@@]12C[C@H](C(=O)NCC(C)C)[C@@]([H])(CN(C(=O)Nc3ccc(F)cc3)C1)O2,-34.27%,-7.67%
CC(C)CCC(=O)NC(C#N)CC(C)C (centres undefined),-4.715%,3.22%
Cc1ncnc2c1CCN(C(=O)Cc1ccccn1)CC2.O=C(O)C(F)(F)F,-43.86%,8.917%
COc1ccc(-c2ccc(C(=O)NCCCC(N)=O)c(F)c2)c(F)c1,-11.98%,-16.57%
Cc1cccc2[nH]c(C3CCN(C(=O)c4c[nH]c(=O)[nH]c4=O)CC3)nc12,-29.91%,-11.52%
Cn1c2c(c(=O)n1C)CN(C(=O)c1ccsc1)CCC2,-34.28%,-1.919%
Cc1ccc(N2CCCC3(CCN(C(=O)C4CC4)C3)C2)nn1 (centres undefined),-6.597%,18.3%
Cc1cc(C(=O)N2CCC3(CC2)CN(CCN(C)C)C(=O)O3)nc(C)n1,-9.7%,4.088%
O=C(O)C(F)(F)F.[H][C@]12CCCN(Cc3ccc(C)o3)[C@@]1([H])CN(C(C)=O)C2,-17.62%,-2.012%
COCCc1noc(CN2CCCC2Cn2nc(C)nc2C)n1 (centres undefined),-9.205%,-1.812%
CCCN(CC(=O)OC)S(=O)(=O)c1cnc2c(c1)c(C)nn2C,-0.3835%,14.01%
Cc1cc(-n2cncn2)ccc1C(=O)Nc1ccc(N2CCCC2)cn1,-44.87%,0.2564%
Cc1c(-c2c(-c3ccccc3)ncn2[C@@H](C(=O)O)[C@H](C)O)cnn1C,-14.9%,2.06%
[H][C@]12CCCC[C@]1([H])N(C(=O)N1CCN(C)CC1)CC[C@@]2(O)c1ccccc1,-1.02%,-14.28%
Cc1ccc(SC2CCCC2)c(C(=O)NCCc2n[nH]c(=O)[nH]2)c1,-41.21%,-4.701%
Cc1cnc(-c2cccc(-c3ccn(CCCO)n3)c2)nc1N(C)C,-15.36%,4.95%
CN(C)c1ccc(C(=O)Nc2ccn(CC(N)=O)n2)cn1,12.45%,12.75%
O=C1Nc2ccccc2CNC12CCN(CC1CCCC1)CC2,-,-4.35%
Cc1cnn(CCNCc2ccc(OCC(N)=O)cc2)c1,32.21%,-4.846%
O=C1CNc2ncnc(Nc3cnn(Cc4ccccc4)c3)c2N1,-8.368%,-17.86%
CCCS(=O)(=O)N(C)C(=O)CCc1ccccc1,-16.34%,22.58%
CC(=O)N1CCC2(CCN(Cc3cccc(F)c3)CC2)CC1.O=C(O)C(F)(F)F,14.98%,-1.601%
Cc1cncc(C(=O)N2Cc3ccccc3C3(CCN(C)CC3)C2)c1,-3.964%,-7.008%
CCn1ccnc1CN1CCN(CC(O)c2cccc(F)c2)CC1 (centres undefined),-,3.072%
Cc1cccc2[nH]c(C3CCN(C(=O)c4cccnn4)CC3)nc12,-36.1%,-10.95%
Cc1c[nH]c(CN(C)C(=O)C2CC(=O)N(Cc3ccncc3)C2)n1 (centres undefined),-87.54%,1.754%
O=C(O)C(F)(F)F.O=C(O)C(F)(F)F.[H][C@@]12OCCN(c3nnc(C)s3)[C@@]1([H])CC[C@@H]2OCc1ccccn1,2.645%,3.148%
Cc1cc(NC(=O)N2CCOCC2)nn1-c1ccccc1Cl,-21.84%,-0.3277%
COc1cc(C(=O)N(C2CC2)C2CC(=O)NC2=O)ccc1C (centres undefined),-37.73%,-
Cc1cc(C)cc(OCCN2CCn3c(C)nnc3C2)c1,-3.179%,7.831%
COc1cc(CCC(=O)N2CCC(c3cc4ncccc4[nH]3)CC2)on1,13.01%,19.99%
Cc1nc(C)n(CC2CN(c3ncccn3)Cc3nccn3C2)n1 (centres undefined),40.94%,2.073%
COc1ccc(-c2cc3nc(CCNC(=O)C4CC4)nn3cn2)cc1,-17.57%,21.52%
COCC1CN(C(=O)Cc2cccc(F)c2)Cc2ccnn2C1.O=C(O)C(F)(F)F (centres undefined),-0.5193%,8.781%
CN(C)c1ncccc1CNc1snc(Cl)c1C#N,-39.62%,13.12%
COc1cc2nc(C)n(CC(=O)NCCO)c(=O)c2cc1OC,-30.51%,-1.627%
NC(=O)CN(CC1CCOC1)C1CC1 (centres undefined),-31.3%,-9.437%

For reference, 6 entries once more:

| SMILES | T. brucei | Toxoplasma |
|---|---|---|
| `Cc1cc(-n2cncn2)ccc1C(=O)Nc1ccc(N2CCCC2)cn1` | -44.87% | 0.2564% |
| `CC(C)CCC(=O)NC(C#N)CC(C)C` (centres undefined) | -4.715% | 3.22% |
| `c1cc(CN2CCC(c3ccnc4nccn34)C2)ccn1` (centres undefined) | 1.317% | 11.15% |
| `Cc1ccc(N2CCCC3(CCN(C(=O)C4CC4)C3)C2)nn1` (centres undefined) | -6.597% | 18.3% |
| `CN(C)c1ccc(C(=O)Nc2ccn(CC(N)=O)n2)cn1` | 12.45% | 12.75% |
| `O=S(=O)(NCC1COCCO1)c1ccc(C2CCCCC2)cc1` (centres undefined) | -47% | -0.1297% |

Data taken from ChEMBL document CHEMBL3988442, “University of Dundee, Small-Polar-MMV Screening Library” (2021).